# From the supplement of paper PMC3334620
# The full ranking holds about 33,000 sequences; the median of “E-score (-0.5 to 0.5)” is about -8e-05, and the highest 2% start at about 0.23. The list shows a part of the results.
# Target: T1, Nrg2 (UniProt P38082)
# T1 sequence: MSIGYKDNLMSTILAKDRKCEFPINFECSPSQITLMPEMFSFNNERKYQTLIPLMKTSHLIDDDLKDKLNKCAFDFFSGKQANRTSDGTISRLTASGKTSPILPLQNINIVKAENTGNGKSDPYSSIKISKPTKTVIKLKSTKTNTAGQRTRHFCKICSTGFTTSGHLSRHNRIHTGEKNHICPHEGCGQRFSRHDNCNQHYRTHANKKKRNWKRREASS
# Assay: PBM E-score (8-mer binding enrichment) (E-score (-0.5 to 0.5)); higher = stronger / more preferred TF binding
# Settings: protein concentration: 100 nM; construct: GST-full length
# Method in brief: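 Full-length yeast transcription factors or their DNA-binding domains, GST-tagged and expressed with PURExpress, were applied at about 100-200 nM to universal all-10-mer Agilent arrays. These arrays had been made double-stranded by primer extension on fresh or once-stripped slides. Detection used fluorescent anti-GST, normalisation used masliner, and E-scores for ungapped eight-base words pooled with reverse complements came from the Universal PBM Analysis Suite.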
row,Sequence,PBM E-score
1,CAAATTAC,-0.0296
2,GAGACGAC,-0.0712
3,CTTAGGAA,-0.0218
4,ACCCGAAG,0.00647
5,CACTTTCC,-0.103
6,GCGTTAGC,-0.0563
7,ACCGTAGT,0.0254
8,TGTGTAAA,0.142
9,CAATCACA,-0.013
10,AAACCCAA,0.0986
11,ATGAATTC,0.117
12,AACAATCA,0.126
13,ATCATAGG,-0.0259
14,AGAGCAGG,0.0559
15,TATCGAGA,0.0251
16,ACAAGACT,0.0293
17,CCCAGGGG,-0.119
18,GGTAGCCA,-0.101
19,CGGGGTTA,0.119
20,GGTTGCGA,0.167
21,ATAGCAAT,0.128
22,AATGTTGC,0.0146
23,AAGTTGCG,0.0873
24,CAGGCACG,-0.0596
25,CCCGCTCC,-0.383

row,Sequence,PBM E-score
1,AAGGCCGC,0.0278
2,AGATTGGC,-0.165
3,CTTGATTA,0.114
4,ATAGAGTG,0.0129
5,GGTGGACA,-0.0162
6,AAATTCGG,0.205
7,CTATATCA,0.164
8,AAAATGTA,0.0718
9,ACGTTCGA,-0.0272
10,AGATGAAC,0.109
11,ATGACCAG,0.00391
12,CAGGATAC,0.0332
13,AATCATAT,0.0761
14,TAGGGAAA,-0.0116
15,CTGTGTAA,0.0137
16,GTGACAAC,0.112
17,AAGCCTCC,-0.222
18,CTTTCATA,0.103
19,GAGATGAA,-0.00016
20,AAAATAGG,0.164
21,CCGGCGCC,0.12
22,GCTAGAGA,-0.0879
23,ACGGTTCG,-0.169
24,CGACTCTC,-0.0799
25,GAAAGACC,-0.132

row,Sequence,PBM E-score
1,TACACAAA,0.0458
2,CCACCCAG,0.03
3,CCGCCAAA,0.111
4,AACTACAC,0.0363
5,AATAGCTA,0.04
6,GATAGTCA,-0.0399
7,GTATGGAA,-0.0935
8,CCTGTGAA,0.101
9,GCTCTTAA,-0.097
10,GGGGTAGA,0.0331
11,AAAGCATA,-0.105
12,ATCTATAA,-0.00946
13,CAGGTACA,-0.0461
14,CATATTCC,-0.128
15,GGGCTCCA,-0.377
16,ATGTACAC,-0.016
17,CCCGGGGC,-0.0967
18,CCCTGACG,0.138
19,CACGCGGA,0.234
20,GAACCATC,0.044
21,GACCAAAA,0.117
22,GCGGATAA,0.171
23,AACTCAGT,0.106
24,AGGCCTCC,-0.158
25,GGATTCAC,0.0567

row,Sequence,PBM E-score
1,ATTGGCTG,-0.219
2,TATTGTAA,-0.042
3,TCACCTCA,-0.0482
4,CGGCTCAA,0.0638
5,AGCCCTAG,-0.16
6,GCTAACCA,-0.172
7,CGTGATGA,-0.0445
8,CATTAAAA,0.252
9,ATGCTAAT,0.0728
10,AAGTCGCT,-0.122
11,GGAGGCCC,-0.315
12,CGCCGGGC,0.0337
13,GAGCTTAC,-0.0886
14,AAAATCTC,0.101
15,CTTCGAGC,0.0305
16,GCCAAGAC,-0.164
17,CTGACCAC,0.0705
18,ATTCGCCA,0.158
19,CTAGTTTA,-0.106
20,CATTTACA,0.053
21,CGCGCTTA,0.254
22,AAAGTGGA,-0.0315
23,ACTCATAT,-0.028
24,AGGACGAG,-0.0678
25,GGTTGATA,0.138

# 47 consecutive entries already listed:
row,Sequence,PBM E-score
5,CACTTTCC,-0.103
6,GCGTTAGC,-0.0563
7,ACCGTAGT,0.0254
8,TGTGTAAA,0.142
9,CAATCACA,-0.013
10,AAACCCAA,0.0986
11,ATGAATTC,0.117
12,AACAATCA,0.126
13,ATCATAGG,-0.0259
14,AGAGCAGG,0.0559
15,TATCGAGA,0.0251
16,ACAAGACT,0.0293
17,CCCAGGGG,-0.119
18,GGTAGCCA,-0.101
19,CGGGGTTA,0.119
20,GGTTGCGA,0.167
21,ATAGCAAT,0.128
22,AATGTTGC,0.0146
23,AAGTTGCG,0.0873
24,CAGGCACG,-0.0596
25,CCCGCTCC,-0.383
1,AAGGCCGC,0.0278
2,AGATTGGC,-0.165
3,CTTGATTA,0.114
4,ATAGAGTG,0.0129
5,GGTGGACA,-0.0162
6,AAATTCGG,0.205
7,CTATATCA,0.164
8,AAAATGTA,0.0718
9,ACGTTCGA,-0.0272
10,AGATGAAC,0.109
11,ATGACCAG,0.00391
12,CAGGATAC,0.0332
13,AATCATAT,0.0761
14,TAGGGAAA,-0.0116
15,CTGTGTAA,0.0137
16,GTGACAAC,0.112
17,AAGCCTCC,-0.222
18,CTTTCATA,0.103
19,GAGATGAA,-0.00016
20,AAAATAGG,0.164
21,CCGGCGCC,0.12
22,GCTAGAGA,-0.0879
23,ACGGTTCG,-0.169
24,CGACTCTC,-0.0799
25,GAAAGACC,-0.132
1,TACACAAA,0.0458

# Continued:

row,Sequence,PBM E-score
1,GAGAGGCC,-0.0877
2,AATTGTGT,0.0191
3,ACTTGACG,-0.112
4,AAGGCCTA,-0.185
5,CTTTGCGA,0.124
6,ACCCTCTG,0.00968
7,CGTGTTAG,0.0392
8,GAAAGGTC,-0.135
9,GCATGTTA,0.0871
10,ACGACGTA,-0.166
11,GCGCAACA,0.0618
12,CCGGTAAC,-0.136
13,AACTACCT,0.101
14,ATACGGTG,-0.0251
15,ATCAACAA,0.155
16,ACGATGCC,-0.229
17,ATAAGTTG,0.0867
18,CTAAAGCC,-0.243
19,AGGAAGTG,0.0526
20,GTACGTGA,-0.0739
21,GCGTCTTA,-0.156
22,GGCTGAAC,0.113
23,ATGAAATG,0.143
24,CCGACACC,-0.284
25,AAATAGCT,-0.00795

row,Sequence,PBM E-score
1,GTGCGCTA,0.0902
2,CCCATTTC,0.0474
3,CACGCTTC,-0.164
4,CTGTTCAA,-0.0123
5,CTATCATA,0.125
6,AAACGACT,0.0569
7,TATTTTGA,-0.0616
8,CAGCATCA,0.00269
9,GCCATTTA,-0.0542
10,GCATGCCA,-0.00101
11,ATGGGAAT,-0.0749
12,TCGTCCAA,0.0325
13,CAAAGGCA,-0.173
14,CAAGTTAA,0.0273
15,TTCCCCAA,0.122
16,ACTATACT,0.179
17,CGGTACCC,-0.154
18,CCCAGCAG,0.0729
19,CCGCATGC,-0.0299
20,AACTGGCA,0.0237
21,AACTCAAT,0.0129
22,GCGAATAC,0.102
23,AACAATGG,0.0225
24,TAGACAAA,-0.0662
25,CCAGGCCA,-0.182

row,Sequence,PBM E-score
1,AATGTTCG,0.0723
2,CCGTCCCC,-0.223
3,ATACTTTA,0.0828
4,ATCTCTAG,-0.108
5,CTGCATAC,0.113
6,ATGTCCTG,0.0471
7,AAAATCAT,-0.0452
8,ACCTAGCT,-0.137
9,AATGGAGT,0.0222
10,GATCTTTA,0.171
11,AGGTCTTC,-0.27
12,ATTGGATG,0.0741
13,GACCACCA,0.0215
14,AATTTCTA,0.082
15,GTGCCCCA,-0.126
16,AAACCCGG,0.0908
17,TCAGACAA,0.0781
18,GGGCGATA,-0.115
19,CAGATAAA,0.148
20,CGGTCTGA,0.11
21,GTTGCCAA,0.0119
22,AATATCGG,0.137
